# Percent effect of library compounds

The chains behind the UniProt entries cited, without tags or fusion partners. Residues count along the entry.
UniProt Q8IDJ8, 1-583: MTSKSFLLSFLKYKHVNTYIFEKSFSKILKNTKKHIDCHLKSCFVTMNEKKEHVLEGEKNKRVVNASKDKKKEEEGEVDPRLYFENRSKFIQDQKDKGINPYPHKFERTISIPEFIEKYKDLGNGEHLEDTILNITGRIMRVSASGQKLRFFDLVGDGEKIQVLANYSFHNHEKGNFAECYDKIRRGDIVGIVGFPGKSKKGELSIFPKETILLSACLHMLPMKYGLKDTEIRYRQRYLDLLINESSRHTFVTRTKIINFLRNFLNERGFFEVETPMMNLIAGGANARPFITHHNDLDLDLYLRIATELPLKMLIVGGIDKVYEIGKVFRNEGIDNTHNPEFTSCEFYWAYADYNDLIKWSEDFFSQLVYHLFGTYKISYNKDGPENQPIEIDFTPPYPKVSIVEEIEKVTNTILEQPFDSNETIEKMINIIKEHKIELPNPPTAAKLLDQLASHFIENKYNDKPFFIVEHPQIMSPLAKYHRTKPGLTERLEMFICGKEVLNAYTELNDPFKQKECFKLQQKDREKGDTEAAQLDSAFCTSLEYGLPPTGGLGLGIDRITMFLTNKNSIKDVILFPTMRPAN
UniProt P9WPC5, whole entry: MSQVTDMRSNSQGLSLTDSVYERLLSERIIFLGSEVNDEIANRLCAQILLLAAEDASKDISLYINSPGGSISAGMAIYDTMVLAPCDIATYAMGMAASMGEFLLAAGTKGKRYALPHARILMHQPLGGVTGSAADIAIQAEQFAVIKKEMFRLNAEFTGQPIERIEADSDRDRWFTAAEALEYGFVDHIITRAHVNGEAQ
UniProt P9WPC3, whole entry partner: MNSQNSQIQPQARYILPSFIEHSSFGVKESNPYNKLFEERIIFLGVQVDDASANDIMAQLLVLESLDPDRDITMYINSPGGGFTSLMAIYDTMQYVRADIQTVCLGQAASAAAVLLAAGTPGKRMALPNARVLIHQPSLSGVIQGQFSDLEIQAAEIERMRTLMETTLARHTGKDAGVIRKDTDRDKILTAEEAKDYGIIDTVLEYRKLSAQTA

Each number is a percent effect as filed. The record does not define 0% and 100%; most values in the screen are far below 50% and negative numbers occur (in some assays of this library far below -100). Compounds were drawn at random from those tested, without regard to their results.

A: 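Enzyme assay of the cytosolic lysyl-tRNA synthetase in 384-well plates, read by luminescence. Target: Lysine-tRNA ligase, Plasmodium falciparum 3D7 (UniProt Q8IDJ8). Tested at 30 µM. Higher reads as stronger inhibition, judged from the few compounds that gave an IC50. About 69,000 compounds were tested under these conditions; 0.071% (about 49) showed 50% or more at least once.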
B: 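ClpP1P2, Mycobacterium tuberculosis (UniProt P9WPC5 and UniProt P9WPC3). Protease assay of ClpP1P2, read by the AMC dye that it sets free. Concentration: 50 µM. Higher reads as stronger inhibition, judged from the few compounds that gave an IC50. Most other retested compounds had strongly negative values. Size under these conditions: about 69,000 compounds, about 10 of them at 50% or above in at least one test.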

{"structure": "Cn1c(CN2CCCCCC2)cc(=O)c(O)c1CN1CCCC1", "A": 3.446, "B": 2.988}
{"structure": "Cc1nc(NCc2nnc(C)n2C)c2c(CC(C)C)csc2n1", "A": -2.707, "B": -5.757}
{"structure": "Cc1nc2cc(OCc3nc(C(=O)NC(CO)CO)co3)ccc2s1", "A": -3.101, "B": 0.4162}
{"structure": "O=C(c1ccc[nH]1)N1CCCn2cnc(COCC3CC3)c2C1", "A": -3.565, "B": -6.947}
{"structure": "CC(=O)NCC(=O)N1CCc2nc(-c3ccccc3)nc(C)c2CC1", "A": 5.575, "B": -1.767}
{"structure": "Cc1ccc(S(=O)(=O)NC(=O)C2(c3ccc(F)cc3)CCC2)c(C)c1", "A": 2.745, "B": 10.51}
{"structure": "CS(=O)(=O)NCc1nnc2n1CCN(CC1CC1)C2", "A": 3.225, "B": 0.09973}
{"structure": "COC(=O)C(NC(=O)c1cc(F)cc(F)c1)c1cccnc1", "stereo": "configuration not stated", "A": 1.559, "B": -5.517}
{"structure": "CC(C(=O)NC1CCCCC1)N1CCc2[nH]nc(C(F)(F)F)c2C1", "stereo": "configuration not stated", "A": 1.05, "B": 2.066}
{"structure": "Fc1ccc(Cn2ncc3c2CN(c2noc(C4CC4)n2)C3)cc1", "A": 4.271, "B": -10}
{"structure": "Cc1cn2c(n1)CCC(NC(=O)c1ccc(CS(C)(=O)=O)cc1)C2", "stereo": "configuration not stated", "A": 5.203, "B": 8.273}
{"structure": "Cc1cc(CN2CCN(Cc3ccc(C#N)cc3F)CC2)no1", "A": -1.258, "B": 16.32}
{"structure": "COCc1cnc2n1CCN(C(=O)C1=CCCCC1)C2C", "stereo": "configuration not stated", "A": -0.3149, "B": 9.889}
{"structure": "CN(C)c1cc(C(=O)N2CCCCC2)ccn1", "A": 0.06024, "B": 6.076}
{"structure": "CN(C)CC(=O)N1CC2(CCN(Cc3ccccc3)C2)C1", "A": 3.242, "B": -3.632}
{"structure": "CC(C)c1nc(C(=O)N2CCCC(n3cncn3)C2)c[nH]1", "stereo": "configuration not stated", "A": 8.275, "B": -2.262}
{"structure": "Cc1nonc1C(=O)N1CCc2c(ncn2CCc2ccccc2)C1", "A": 3.071, "B": 0.7937}
{"structure": "NC(=O)c1cnn2c1NCC(CNCC1(c3ccccc3)CCC1)C2", "stereo": "configuration not stated", "A": 3.765, "B": 22.32}
{"structure": "Cc1cnn(CC2CN(CCCS(C)(=O)=O)CCO2)c1", "stereo": "configuration not stated", "A": -0.05712, "B": 0.3157}
{"structure": "COc1ccc2cc(NC(=O)CCCNc3ncccn3)cnc2c1", "A": 4.267, "B": -10.88}
{"structure": "COc1cccc(Cn2ncnc2COC(C)C)c1", "A": 4.804, "B": 13.97}
{"structure": "CCCS(=O)(=O)N1CC[C@H]2O[C@H](c3nnc(C)o3)CC[C@H]21", "A": -4.482, "B": 18.26}
{"structure": "CCN(Cc1noc(CC(C)C)n1)Cc1cc2ccc(F)cc2[nH]c1=O", "A": 10.08, "B": -13.78}
{"structure": "CCOCCNS(=O)(=O)c1ccc2c3c1CCCN3C(=O)CO2", "A": -1.651, "B": -14.93}
{"structure": "CC(O)CN1CCC(CNCc2cccc(OC(C)C)c2)CC1", "stereo": "configuration not stated", "A": -5.731, "B": -3.381}
{"structure": "CCC(C)NC(=O)Cn1c(Nc2cc(C)cc(C)c2)nc(C)cc1=O", "stereo": "configuration not stated", "A": 2.558, "B": 8.258}
{"structure": "Cc1oncc1C(=O)N1CC2CC1(C(=O)N1CCCC1)C2", "A": -3.541, "B": 6.602}
{"structure": "Cc1cc(NC(=O)NCC2(O)CCCC2)ccn1", "A": 7.526, "B": -11.55}
{"structure": "CCCc1nc(N2CC[C@@H](c3ccc4c(c3)OCO4)[C@H](O)C2)no1", "A": 2.042, "B": -17.65}
{"structure": "CC(C)NC(=O)NCc1ccc(C(=O)NC(C)Cn2cccn2)cc1", "stereo": "configuration not stated", "A": 1.951, "B": -43.79}
{"structure": "CC1c2ncc(COCC3CC3)n2CCN1C(=O)c1ccnnc1", "stereo": "configuration not stated", "A": 3.883, "B": 1.516}
{"structure": "CC(C)NC(=O)C1CN(C(N)=O)Cc2ccnn2C1", "stereo": "configuration not stated", "A": 0.9018, "B": 14.2}
{"structure": "Cc1cccc(C2CCCN(S(=O)(=O)c3cccnc3)C2)n1", "stereo": "configuration not stated", "A": 0.4841, "B": -8.116}
{"structure": "CCc1noc(CN2CCCN(Cc3cccs3)CC2)n1", "A": 5.353, "B": -12.81}
{"structure": "Cc1cc(C)n(CC2CCCCN2C(=O)c2ccc3c(c2)COC3)n1", "stereo": "configuration not stated", "A": 0.6237, "B": -21.53}
{"structure": "CCSCCC(=O)Nc1ncn(Cc2ccccc2)n1", "A": 1.372, "B": -12.46}

4 of the entries, repeated:

For COc1ccc2cc(NC(=O)CCCNc3ncccn3)cnc2c1 the result was A: 4.267%; B: -10.88%.
For CC(=O)NCC(=O)N1CCc2nc(-c3ccccc3)nc(C)c2CC1 the result was A: 5.575%; B: -1.767%.
For CCN(Cc1noc(CC(C)C)n1)Cc1cc2ccc(F)cc2[nH]c1=O the result was A: 10.08%; B: -13.78%.
For CC(O)CN1CCC(CNCc2cccc(OC(C)C)c2)CC1 (configuration not stated) the result was A: -5.731%; B: -3.381%.

Measurements from “University of Dundee, Small-Polar-MMV Screening Library” (2021), ChEMBL document CHEMBL3988442.